Assay results: PubChem BioAssay AID1035470 (Broad Institute, 2014)
In all, about 1,800 compounds went through this assay and fewer than 10 were called active. About 16% were inconclusive and are not listed.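 How the source made its calls: active means compound lowering the normal-ribosome reporter at least twice as much as the humanized-ribosome reporter, growth loss under a set limit; inconclusive means no clear call, values can overlap the other calls; inactive means the rest.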 The entries are a selection whose mix differs from that of the whole data set. Potency and affinity values are given separately.

Assay: growth inhibition of wild-type GFP E. coli versus G2058-humanized strain, dose response, G2058 mutant RFP vs wild-type GFP, cherry-pick, two tests (AID 1035470)
Details: E. coli WT-GFP vs G2058-humanized RFP, fluorescence, 24 h; at 50 µM (top of the series)

| Compound | activity change, negative = inhibition |
| --- | --- |
| COc1cccc(NC(=O)C2CCC(CNS(=O)(=O)c3cccc4cccnc34)CC2)c1 (configuration not stated) | inactive: -15.6 |
| Cc1ccc(C(=O)NCC(=O)OCC(=O)Nc2cccc(S(=O)(=O)N3CCCC3)c2)cc1C | inactive: -3.75 |
| Fc1ccccc1C1CCN(Cc2nc(CC3CC3)no2)C1 (configuration not stated) | inactive: -7.8 |
| COC(=O)c1nc(-c2ccc(C)cc2)[nH]c1C(C)(C)C | inactive: -4.69 |
| COc1ccccc1NC(=O)COC(=O)Cc1c[nH]c2ccccc12 | inactive: -23.2 |
| CN(C)S(=O)(=O)c1cccc(C(=O)OCC(=O)c2ccc3c(c2)NC(=O)CO3)c1 | inactive: -8.73 |
| NS(=O)(=O)c1ccc(CCNC(=O)CCCCCNc2nc(=S)[nH]c3ccccc23)cc1 | inactive: -8.65 |
| Cc1noc(C)c1NC(=O)Nc1ccc2c(c1)C(=O)N([C@H](C)CO)C[C@H](C)[C@H](CN(C)C(=O)Nc1ccc3c(c1)OCO3)OCCCC[C@H](C)O2 | inactive: 15 |
| CCc1cc(CN2CCOCC2)c(NC(=O)c2ccccc2)s1 | inactive: -6.48 |
| CCNc1nc(N)c(C(=O)C23CC4CC(CC(C4)C2)C3)s1 | inactive: -9.62 |
| CCN=C1NN=C(c2ccc(C)cc2)CS1 | inactive: -3.58 |
| Cc1cc(C(=O)COC(=O)CNC(=O)c2ccccc2)c(C)n1CC1CCCO1 (configuration not stated) | inactive: -18.4 |
| COCc1nnc(NC(=O)c2ccc(S(=O)(=O)N3CCCC3)cc2)o1 | inactive: -10.3 |
| O=C(COC(=O)C1CC2C=CC1C2)Nc1ccc([N+](=O)[O-])cc1 (configuration not stated) | inactive: -15.1 |
| Brc1ccc(-c2nc3c4ccccc4ccn3c2Cc2ccccc2)cc1 | inactive: 2.3 |
| Cc1ccc(Cc2c(-c3ccc(C#N)cc3)nc3ccc(Br)cn23)cc1 | inactive: -5.11 |
| COc1ccccc1CC(=O)NCCc1c[nH]c2ccccc12 | inactive: 3.23 |
| C=CCn1c(C)cc(C(=O)CSc2nnc(C3CC3)n2C2CC2)c1C | inactive: -7.34 |
| CCN(CC)S(=O)(=O)c1ccc(O)c(C(=O)OCC(=O)NC23CC4CC(CC(C4)C2)C3)c1 | inactive: -2.43 |
| O=C(CCNc1cccc(Cl)c1)c1cccs1 | inactive: -1.48 |
| O=C(COC(=O)c1ccc(O)cc1)Nc1ccccc1 | inactive: -0.941 |
| COc1cc(CCN(C(=O)c2cc3ccccc3[nH]2)C(c2ccccn2)c2nc3ccccc3[nH]2)cc(OC)c1 (configuration not stated) | inactive: -12.2 |
| O=C(Nc1cccc(F)c1)N1C[C@@H]2[C@H](c3ccccc31)[C@H](CO)N2C(=O)Cc1ccccn1 | inactive: 4.99 |

| Compound | activity change, negative = inhibition |
| --- | --- |
| CCCCC(=O)N(Cc1ccc2c(c1)OCO2)Cc1nc2ccccc2c(=O)[nH]1 | inactive: 1.04 |
| Cc1cccc(N2Cc3ccc(Br)cc3C2)c1 | inactive: -4.16 |
| Cc1cc(C)cc(NS(=O)(=O)c2c(C(=O)N3CCCCCC3)c(C)n(C)c2C)c1 | inactive: -6.84 |
| CC(OC(=O)COc1ccccc1)C(=O)NC1CCCC1 (configuration not stated) | inactive: -8.33 |
| CC1(C(=O)NS(=O)(=O)c2cccc(C#N)c2)CCN1C(=O)C1(c2ccc(Cl)cc2)CCC1 (configuration not stated) | inactive: -9.96 |
| COc1ccc(-c2csc3ncn(-c4ccc(C)cc4)c(=O)c23)cc1OC | inactive: -22.9 |
| Fc1ccc(-c2nc3c(Cl)cc(C(F)(F)F)cn3c2Cc2ccsc2)cc1 | inactive: 0.916 |
| C=C1c2cc3c(cc2NC(=S)N1Cc1ccccc1)OCO3 | inactive: -11.4 |
| Cc1cccc(NC(=O)CN(C)S(=O)(=O)c2cccs2)c1 | inactive: -12.2 |
| Nc1ccc(C(=O)Nc2ccc3nc(-c4ccncc4)[nH]c3c2)cc1 | inactive: -14.9 |
| O=C(CSc1nc2ccccc2n1S(=O)(=O)c1cccc([N+](=O)[O-])c1)NCCc1ccccc1 | inactive: -5.02 |
| C[C@@H]1CCCCO[C@@H](CN(C)C)[C@H](C)CN([C@@H](C)CO)C(=O)c2cc(NC(=O)Nc3cccc4ccccc34)ccc2O1 | inactive: 17.4 |
| CC1CCc2c(sc3ncn4c(SCC(=O)NCc5ccco5)nnc4c23)C1 (configuration not stated) | inactive: -3.41 |
| CC(C)(Nc1ccccc1)C(=O)c1ccccc1 | inactive: -19.6 |
| Cc1cccc(NC(=O)c2c(C)nn(-c3ccccc3)c2Cl)c1 | inactive: -18 |
| CC[n+]1c(C)cc2c(sc3ccccc32)c1C | inactive: -11.4 |
| O=C1Nc2ccc(F)cc2C12Nc1ccccc1-c1nnc(SCc3ccccc3)nc1O2 (configuration not stated) | inactive: -11.2 |
| C=CCNC(=O)c1ccccc1CCc1ccccc1 | inactive: -12.7 |
| CCOc1ncccc1C(=O)OCC(=O)NCCCc1ccccc1 | inactive: -20 |
| Cc1cccc(-n2cnc3cc([N+](=O)[O-])ccc32)c1 | inactive: -3 |
| O=C(Nc1ccc2c(c1)OCCO2)C1C(c2ccccc2)=Nc2ccccc2N1C(=O)c1cccnc1 (configuration not stated) | inactive: 0.765 |
| O=C1CCCc2ccccc2N1Cc1ccccc1 | inactive: -20.2 |
| Cc1ccccc1-n1c([C@@H]2C[C@H]2c2ccccc2)n[nH]c1=S | inactive: -15.5 |

Reprinted at random: four records from the list, in no set order.

| Compound | activity change, negative = inhibition |
| --- | --- |
| C=CCn1c(C)cc(C(=O)CSc2nnc(C3CC3)n2C2CC2)c1C | inactive: -7.34 |
| CCCCC(=O)N(Cc1ccc2c(c1)OCO2)Cc1nc2ccccc2c(=O)[nH]1 | inactive: 1.04 |
| Cc1cccc(NC(=O)CN(C)S(=O)(=O)c2cccs2)c1 | inactive: -12.2 |
| Brc1ccc(-c2nc3c4ccccc4ccn3c2Cc2ccccc2)cc1 | inactive: 2.3 |

Following part

| Compound | activity change, negative = inhibition |
| --- | --- |
| COc1ccc(C)c2sc(N(CCN(C)C)C(=O)c3ccc(S(=O)(=O)N(C)c4ccccc4)cc3)nc12 | inactive: 4.7 |
| O=C(Nc1ccc(Cl)c(Cl)c1)c1ccc(Cl)c(Cl)c1 | inactive: -12.7 |
| Cc1cccc(NC(=O)c2nc(S(=O)(=O)Cc3ccccc3)ncc2Cl)c1 | inactive: -5.02 |
| O=C(CSc1nnc(COc2cccc3cccnc23)o1)c1ccc(F)cc1 | inactive: -11.1 |
| O=C(CN(c1ccc(F)cc1)S(=O)(=O)c1ccccc1)Nc1ccccc1C(=O)O | inactive: -12.9 |
| O=C(Cc1c(F)cccc1Cl)N(Cc1ccccc1)c1ccccn1 | inactive: -16.8 |
| C[C@@H]1CCCCO[C@H](CN(C)C)[C@@H](C)CN([C@H](C)CO)C(=O)c2cc(NC(=O)Nc3cccc4ccccc34)ccc2O1 | inactive: 29.6 |
| Cc1onc(-c2ccccc2Cl)c1C(=O)Nc1ccc(Cl)cn1 | inactive: -5.73 |
| Nc1ccc(C(=O)OCCCc2nc3cc4ccccc4cc3[nH]2)cc1 | inactive: -7.66 |
| Cc1noc(C)c1NC(=O)N(C)C[C@H]1OCCCC[C@@H](C)Oc2ccc(NC(=O)Nc3cccc4ccccc34)cc2C(=O)N([C@@H](C)CO)C[C@H]1C | inactive: 2.78 |
| COC(=O)c1ccc(CCc2cc(O)c(Br)cc2O)cc1 | inactive: -22.1 |
| CSc1ccccc1NC(=O)CN(c1cccc(C)c1)S(C)(=O)=O | inactive: -7.39 |
| COc1ccc(C#Cc2ccc([C@@H]3[C@@H](CO)N4CCCCN(C(=O)Nc5ccc(F)cc5)C[C@H]34)cc2)cc1 | inactive: -0.946 |
| O=C(O)CNC(=O)C(c1ccccc1)c1ccccc1 | inactive: -3.19 |
| Cc1cccc(-c2nsc(SCC(=O)NCC3CCCO3)n2)c1 (configuration not stated) | inactive: -11.8 |
| CN(C)S(=O)(=O)c1cccc(NC(=O)c2ccc3c(c2)S(=O)(=O)N=C2CCCCCN23)c1 | inactive: -12.4 |
| O=C(c1ccc(N2CCCCC2)c([N+](=O)[O-])c1)N1CCN(c2ccccn2)CC1 | inactive: -14.6 |
| COc1ccc2c(c1)-c1nc(N)sc1CC2 | inactive: -4.08 |
| O=C(CCNC(=O)c1ccco1)Nc1cccc(Br)c1 | inactive: -16.9 |
| Cc1cccc(Oc2ccc(NC(=O)c3ccccc3C(=O)O)cc2)c1 | inactive: -7.08 |
| Cc1ccc(CSCC(=O)Nc2ccccc2F)cc1 | inactive: -15.3 |
| O=C(c1cc(S(=O)(=O)N2CCOCC2)ccc1Cl)N1CCc2ccccc2C1 | inactive: -17.2 |
| Cc1n[nH]c(C)c1S(=O)(=O)N1CCCC(C(=O)Nc2ccc(Br)cc2)C1 (configuration not stated) | inactive: -2.32 |

| Compound | activity change, negative = inhibition |
| --- | --- |
| Cc1ccc2c(N)c(C(=O)c3ccccc3)sc2n1 | inactive: -23 |
| COc1ccc(C2=NN(C(=O)c3cccnc3)C(c3ccccc3)C2)cc1 (configuration not stated) | inactive: -5.86 |
| [O-][n+]1ccccc1/C=C/c1ccccc1 | inactive: -16.5 |
| COCC(C)NC(=O)c1nn(Cc2ccccc2)c(=O)c2ccccc12 (configuration not stated) | inactive: -8.39 |
| Cc1cc(NC(=O)c2sc(Nc3ccc(F)c(Cl)c3)nc2N)no1 | inactive: 3.6 |
| Cc1cc(C)nc(SCCC(=O)Nc2ccccc2Cl)n1 | inactive: 0.479 |
| CC(CCc1ccccc1)NC(=O)CCC1CCCC1 (configuration not stated) | inactive: -1.78 |
| CCn1c(NC(=O)c2nn(C)cc2Br)nc2ccccc21 | inactive: -7.76 |
| CN1CCSc2ccc(C(=O)Nc3cccc(F)c3)cc21 | inactive: -9.02 |
| COc1ccc(-c2cc(C(=O)O)nc3ccc4ccccc4c23)cc1OC | inactive: -13 |
| Cc1onc(-c2ccccc2Cl)c1C(=O)N1CCN(Cc2ccc3c(c2)OCO3)CC1 | inactive: -9.95 |
| CC(C)c1ccc(-c2nc3ccccc3s2)cc1 | inactive: 2.01 |
| CC(NC(=O)c1ccncc1)c1ccc(Cl)cc1Cl (configuration not stated) | inactive: -2.79 |
| COC(=O)c1cc(S(=O)(=O)NCc2ccc3c(c2)OCO3)cn1C | inactive: -18.4 |
| Cc1ccc(-c2nc(CN3CCCCC3c3cccc(F)c3)c(C)o2)o1 (configuration not stated) | inactive: -14 |
| c1ccc2c(c1)Nc1cc3ccccc3cc1S2 | inactive: 0.57 |
| Cc1nn(Cc2cccc(F)c2)c(C)c1NC(=O)c1c(Cl)cnn1C | inactive: -0.197 |
| Cc1ccc(NCC(=O)c2ccc(C)cc2)cc1 | inactive: -6.49 |
| COc1ccc(OC)c(NC(=O)COc2ccc(S(=O)(=O)NC(C)C)cc2)c1 | inactive: -15.7 |
| Cc1cc(C)c(OCCN(C)Cc2ccccc2)c(Br)c1 | inactive: -12.5 |
| COc1cccc(NC(=O)C(C)SCc2ccccc2)c1 (configuration not stated) | inactive: -14.7 |
| Cc1ccc(S(=O)(=O)NCc2c(-c3ccccc3)noc2C)cc1 | inactive: -15.8 |
| Brc1ccc(Nc2ncnc3[nH]ncc23)cc1 | inactive: -3.7 |
